Data source: PubChem BioAssay AID1259308 (NCATS, 2017)
Here is a random part of about 59,000 reagents. About 1,510 of them (2.6%) count as active. 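Calls use total luciferase alone and ignore viability, so some active siRNAs may act by altering cell number.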 Unmarked entries are inactive. Reagents against one gene are numbered here.

- Aim: 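Genes whose loss raises luciferase production in HEK293 cells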 (primary screen)
- Cell system: human HEK293 embryonic kidney cells stably expressing firefly luciferase (HEK-CMV-Luc2-Hygro)
- Knock-down reagent: single siRNA against human genes, 0.8 pmol siRNA per well
- Duration: 72 h
- Detection: 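Reporter luminescence and viable-cell signal on separate replicate plates, given as percent of non-targeting control and median/MAD z-scores, plus per-cell luciferase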
- Direction: total luciferase, z-score and total luciferase, % of control: higher = more reporter protein produced; luciferase per cell, z-score: higher = more reporter output per viable cell; viable cells, % of control: higher = more viable cells
- Rule for the call: 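Active when the median/MAD z-score for overall luciferase is greater than 3; a gene was taken forward for validation with new siRNAs if at least two of its three siRNAs passed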
- Meaning of the calls: active = raised luciferase; inactive = no rise

The opening 3 records, ahead of the listing:
| total luciferase, z-score | total luciferase, % of control | luciferase per cell, z-score | viable cells, % of control | Gene | siRNA no. |
| --- | --- | --- | --- | --- | --- |
| 0.73 | 96.4 | 0.847 | 86.2 | CSF2RA (colony stimulating factor 2 receptor subunit alpha) | 1 |
| -0.924 | 63.5 | -1.05 | 93.5 | CSF2RA (colony stimulating factor 2 receptor subunit alpha) | 2 |
| -0.666 | 68.6 | -0.946 | 98.4 | CSF2RA (colony stimulating factor 2 receptor subunit alpha) | 3 |

The listing, repeating the preview:
| total luciferase, z-score | total luciferase, % of control | luciferase per cell, z-score | viable cells, % of control | Gene | siRNA no. |
| --- | --- | --- | --- | --- | --- |
| 0.73 | 96.4 | 0.847 | 86.2 | CSF2RA (colony stimulating factor 2 receptor subunit alpha) | 1 |
| -0.924 | 63.5 | -1.05 | 93.5 | CSF2RA (colony stimulating factor 2 receptor subunit alpha) | 2 |
| -0.666 | 68.6 | -0.946 | 98.4 | CSF2RA (colony stimulating factor 2 receptor subunit alpha) | 3 |
| 1.17 | 105 | 0.374 | 107 | DUS2 (dihydrouridine synthase 2) | 1 |
| 3.7 (active) | 155 | 2.1 | 100 | DUS2 (dihydrouridine synthase 2) | 2 |
| 0.0659 | 83.2 | -0.609 | 109 | DUS2 (dihydrouridine synthase 2) | 3 |
| 0.506 | 91.9 | 1.1 | 77 | FLYWCH2 (FLYWCH family member 2) | 1 |
| 0.484 | 91.5 | 0.76 | 83.7 | FLYWCH2 (FLYWCH family member 2) | 2 |
| 0.756 | 96.9 | 1.21 | 78.9 | FLYWCH2 (FLYWCH family member 2) | 3 |
| -0.855 | 64.9 | -0.279 | 78 | HSD52 | 1 |
| 0.0795 | 83.5 | 0.958 | 72.5 | HSD52 | 2 |
| -0.244 | 77 | 0.177 | 82.2 | HSD52 | 3 |
| 0.131 | 84.5 | 0.232 | 88.8 | FAM135B (family with sequence similarity 135 member B) | 1 |
| -0.586 | 70.2 | -0.172 | 82.1 | FAM135B (family with sequence similarity 135 member B) | 2 |
| 0.946 | 101 | 0.89 | 89 | FAM135B (family with sequence similarity 135 member B) | 3 |
| 0.0446 | 82.8 | -0.351 | 101 | ELP4 (elongator acetyltransferase complex subunit 4) | 1 |
| -0.339 | 75.2 | -0.714 | 101 | ELP4 (elongator acetyltransferase complex subunit 4) | 2 |
| 1.05 | 103 | 1.83 | 70.8 | ELP4 (elongator acetyltransferase complex subunit 4) | 3 |
| -0.123 | 79.4 | 0.165 | 85 | ZNF142 (zinc finger protein 142) | 1 |
| 1.93 | 120 | 1.9 | 81.6 | ZNF142 (zinc finger protein 142) | 2 |
| -0.287 | 76.2 | 0.198 | 80.8 | ZNF142 (zinc finger protein 142) | 3 |
| -2.1 | 40.1 | -1.07 | 59.5 | MED14 (mediator complex subunit 14) | 1 |
| -1.96 | 42.8 | -1.6 | 73 | MED14 (mediator complex subunit 14) | 2 |
| -2.31 | 35.9 | -1.55 | 60.3 | MED14 (mediator complex subunit 14) | 3 |
| -0.407 | 73.8 | 0.211 | 78 | GANC (glucosidase alpha, neutral C) | 1 |
| -0.577 | 70.4 | -0.854 | 98.5 | GANC (glucosidase alpha, neutral C) | 2 |
| -1.67 | 48.6 | -1.32 | 76.9 | GANC (glucosidase alpha, neutral C) | 3 |
| 1.05 | 103 | 0.502 | 101 | LINC01625 (long independently transcribed non-coding RNA 1625) | 1 |
| -0.171 | 78.5 | -0.377 | 96.9 | LINC01625 (long independently transcribed non-coding RNA 1625) | 2 |
| 1.33 | 108 | 1.5 | 81.6 | LINC01625 (long independently transcribed non-coding RNA 1625) | 3 |
| -0.69 | 68.2 | -0.45 | 85.7 | POTEKP (POTE ankyrin domain family member K, pseudogene) | 1 |
| 1.51 | 112 | 3.34 | 51.9 | POTEKP (POTE ankyrin domain family member K, pseudogene) | 2 |
| 0.0507 | 82.9 | -0.355 | 102 | POTEKP (POTE ankyrin domain family member K, pseudogene) | 3 |
| 1.12 | 104 | 1.07 | 87.7 | SFI1 (SFI1 centrin binding protein) | 1 |
| 0.344 | 88.7 | 0.413 | 88.9 | SFI1 (SFI1 centrin binding protein) | 2 |
| -0.174 | 78.4 | -0.832 | 109 | SFI1 (SFI1 centrin binding protein) | 3 |
| 0.851 | 98.8 | 0.342 | 101 | NUDT16 (nudix hydrolase 16) | 1 |
| 0.0022 | 81.9 | -0.308 | 99.3 | NUDT16 (nudix hydrolase 16) | 2 |
| 0.461 | 91.1 | -0.511 | 116 | NUDT16 (nudix hydrolase 16) | 3 |
